No constants are given. Whether binding was seen depends on the method and setting. In cells and extracts the contact can be indirect. Here binding means that the protein was enriched with, or labelled near, the bait; the list need not be complete.
Target: Hydroxyacyl-CoA dehydrogenase alpha subunit (HADHA) (human (endogenous in HO-8910)) (UniProt P40939)
Experiment: affinity purification with mass spectrometry; HO-8910 lysate (immunoprecipitation lysis buffer with 100 µM PMSF), protein A-agarose with anti-HADHA antibody (1:50) or normal rabbit IgG (1 µg/ml); interacting proteins identified by mass spectrometry

The chains behind the UniProt entries cited, without tags or fusion partners. Residues count along the entry.
UniProt P40939, residues 37-763: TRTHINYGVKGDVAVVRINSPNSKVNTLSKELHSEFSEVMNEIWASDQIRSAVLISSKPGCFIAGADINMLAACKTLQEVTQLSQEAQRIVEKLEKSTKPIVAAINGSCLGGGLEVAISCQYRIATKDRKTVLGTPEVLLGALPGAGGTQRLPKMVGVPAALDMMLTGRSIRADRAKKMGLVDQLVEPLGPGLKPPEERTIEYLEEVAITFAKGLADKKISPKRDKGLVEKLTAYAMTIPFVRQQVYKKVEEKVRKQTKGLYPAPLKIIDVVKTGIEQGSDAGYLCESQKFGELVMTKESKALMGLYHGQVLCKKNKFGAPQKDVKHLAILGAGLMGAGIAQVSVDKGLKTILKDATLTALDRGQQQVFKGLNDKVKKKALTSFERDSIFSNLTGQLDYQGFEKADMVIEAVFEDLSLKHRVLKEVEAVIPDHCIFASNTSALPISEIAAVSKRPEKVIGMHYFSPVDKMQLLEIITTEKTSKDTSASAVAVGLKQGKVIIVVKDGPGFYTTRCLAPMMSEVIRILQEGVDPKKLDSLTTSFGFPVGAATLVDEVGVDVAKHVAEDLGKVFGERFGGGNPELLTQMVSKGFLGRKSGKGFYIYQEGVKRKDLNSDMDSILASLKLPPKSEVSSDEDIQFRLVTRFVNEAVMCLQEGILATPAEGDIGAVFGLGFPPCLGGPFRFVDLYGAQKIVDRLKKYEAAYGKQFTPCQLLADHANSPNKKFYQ
UniProt P12004: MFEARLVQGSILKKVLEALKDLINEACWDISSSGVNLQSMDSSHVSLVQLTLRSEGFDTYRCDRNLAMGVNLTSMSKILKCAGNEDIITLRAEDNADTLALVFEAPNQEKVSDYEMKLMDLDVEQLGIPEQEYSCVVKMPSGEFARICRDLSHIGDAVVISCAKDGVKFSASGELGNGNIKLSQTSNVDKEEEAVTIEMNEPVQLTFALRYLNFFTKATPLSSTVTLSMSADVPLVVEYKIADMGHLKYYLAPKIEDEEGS

binding	Molecule
binds	PCNA (from UniProt P12004 1-261)
binds	CAT (protein, UniProt P04040 1-527) MADSRDPASDQMQHWKEQRAAQKADVLTTGAGNPVGDKLNVITVGPRGPLLVQDVVFTDEMAHFDRERIPERVVHAKGAGAFGYFEVTHDITKYSKAKVFEHIGKKTPIAVRFSTVAGESGSADTVRDPRGFAVKFYTEDGNWDLVGNNTPIFFIRDPILFPSFIHSQKRNPQTHLKDPDMVWDFWSLRPESLHQVSFLFSDRGIPDGHRHMNGYGSHTFKLVNANGEAVYCKFHYKTDQGIKNLSVEDAARLSQEDPDYGIRDLFNAIATGKYPSWTFYIQVMTFNQAETFPFNPFDLTKVWPHKDYPLIPVGKLVLNRNPVNYFAEVEQIAFDPSNMPPGIEASPDKMLQGRLFAYPDTHRHRLGPNYLHIPVNCPYRARVANYQRDGPMCMQDNQGGAPNYYPNSFGAPEQQPSALEHSIQYSGEVRRFNTANDDNVTQVRAFYVNVLNEEQRKRLCENIAGHLKDAQIFIQKKAVKNFTEVHPDYGSHIQALLDKYNAEKPKNAIHTFVQSGSHLAAREKANL
binds	PGD (protein, UniProt P52209 1-483) MAQADIALIGLAVMGQNLILNMNDHGFVVCAFNRTVSKVDDFLANEAKGTKVVGAQSLKEMVSKLKKPRRIILLVKAGQAVDDFIEKLVPLLDTGDIIIDGGNSEYRDTTRRCRDLKAKGILFVGSGVSGGEEGARYGPSLMPGGNKEAWPHIKTIFQGIAAKVGTGEPCCDWVGDEGAGHFVKMVHNGIEYGDMQLICEAYHLMKDVLGMAQDEMAQAFEDWNKTELDSFLIEITANILKFQDTDGKHLLPKIRDSAGQKGTGKWTAISALEYGVPVTLIGEAVFARCLSSLKDERIQASKKLKGPQKFQFDGDKKSFLEDIRKALYASKIISYAQGFMLLRQAATEFGWTLNYGGIALMWRGGCIIRSVFLGKIKDAFDRNPELQNLLLDDFFKSAVENCQDSWRRAVSTGVQAGIPMPCFTTALSFYDGYRHEMLPASLIQAQRDYFGAHTYELLAKPGQFIHTNWTGHGGTVSSSSYNA

— article PMC10658966
